Data from patent US20250177533A1, “PHOTODYNAMIC THERAPY AND DIAGNOSIS” (RMW CHO Group Limited, priority 2021, published 2025).

system: Human ovarian cancer cell line SKOV3; assay: Phototoxicity in SKOV3 cells (660 nm laser or LED, AlamarBlue viability); assay type: cell-based; details: calculated using phototoxicity IC90 vs dark toxicity IC10, SKOV3; phototoxicity by LED where marked *
Source text: All data are shown as mean±SD (where appropriate).
Media was then replaced with fresh media containing AlamarBlue, and % viable cells remaining assessed as above. […] All measurements were made in quadruplicate.

Going from `CCC1=C(C)c2cc3[nH]c(cc4nc(c(C)c5cc(C)c(cc1n2)[nH]5)[C@@H](CCC(=O)N(CCOCCOCCOC)CCOCCOCCOC)[C@@H]4C)c(C)c3CO[C@@H]1O[C@H](CO)[C@@H](O)[C@H](O)[C@H]1O` [Compound 14, phyllochlorin 13-hydroxymethyl-β-D-glucoside ether-N,N-bis-PEG3OMe propylamide] to “phyllochlorin methyl ester 3-triphenylphosphonium bromide propyl ether [Compound 21]”, the “Therapeutic Index” value rises from 3.37 to 316.75.

Going from `CCC1=C(C)c2cc3[nH]c(cc4nc(c(C)c5cc(C)c(cc1n2)[nH]5)[C@@H](CCC(=O)N(C)CCCO)[C@@H]4C)c(C)c3C(C)OCCCS[C@@H]1O[C@H](CO)[C@@H](O)[C@H](O)[C@H]1O` (stereo partly drawn) [Compound 2, phyllochlorin N-3-hydroxypropyl-N-methyl propylamide propyloxythio-D-glucose] to `CCC1=C(C)c2cc3[nH]c(cc4nc(c(C)c5cc(C)c(cc1n2)[nH]5)[C@@H](CCC(=O)OC)[C@@H]4C)c(C)c3C(C)OCCC[n+]1ccccc1` (stereo partly shown) [Compound 20, phyllochlorin methyl ester 3-pyridinium bromide propyl ether], the “Therapeutic Index” value rises from 254.67 to 666.00.

First: CCC1=C(C)c2cc3[nH]c(cc4nc(c(C)c5cc(C)c(cc1n2)[nH]5)[C@@H](CCC(=O)N(C)CCOCCOCCOC)[C@@H]4C)c(C)c3CO [Compound 42, phyllochlorin 13-hydroxymethyl N-methyl-N-3,6,9-trioxadecyl propylamide]
Second: CCC1=C(C)c2cc3[nH]c(cc4nc(c(C)c5cc(C)c(cc1n2)[nH]5)[C@@H](CCC(=O)N(C)CCOC)[C@@H]4C)c(C)c3COC(=O)NCCC[P+](c1ccccc1)(c1ccccc1)c1ccccc1 [Compound 50, phyllochlorin N-methyl-N-(2-methoxy)ethyl propylamide 13-(N-(3-triphenylphosphoniumpropyl)bromide)carbamate]
The “Therapeutic Index” value of the first is lower: 17.36 for the first, 293.75 for the second.

First: CCC1=C(C)c2cc3[nH]c(cc4nc(c(C)c5cc(C)c(cc1n2)[nH]5)[C@@H](CCC(=O)OC)[C@@H]4C)c(C)c3C=O [Compound 30, phyllochlorin 13-formyl methyl ester]
Second: CCC1=C(C)c2cc3[nH]c(cc4nc(c(C)c5cc(C)c(cc1n2)[nH]5)[C@@H](CCC(=O)OC)[C@@H]4C)c(C)c3C(C)OCCOCC[P+](c1ccccc1)(c1ccccc1)c1ccccc1 (stereo partly shown) [Compound 23, phyllochlorin methyl ester 2-(2-triphenylphosphoniumethoxy)ethyl ether chloride]
The “Therapeutic Index” value of the first is lower: 20.16 for the first, 257.17 for the second.

Going from `CCC1=C(C)c2cc3[nH]c(cc4nc(c(C)c5cc(C)c(cc1n2)[nH]5)[C@@H](CCC(=O)OC)[C@@H]4C)c(C)c3COC(=O)NCCOC` [Compound 29, phyllochlorin methyl ester 13-(2-methoxyethyl)carbamate] to `CCC1=C(C)c2cc3[nH]c(cc4nc(c(C)c5cc(C)c(cc1n2)[nH]5)[C@@H](CCC(=O)O)[C@@H]4C)c(C)c3CO` [Compound 17, phyllochlorin 13-hydroxymethyl], the “Therapeutic Index” value falls from 346.02 to 28.06.

Going from `CCC1=C(C)c2cc3[nH]c(cc4nc(c(C)c5cc(C)c(cc1n2)[nH]5)[C@@H](CCC(=O)N(C)CCOCCOCCOC)[C@@H]4C)c(C)c3COC(=O)NCCCCCC[P+](c1ccccc1)(c1ccccc1)c1ccccc1` [Compound 43, phyllochlorin 13-(6-(triphenylphosphonium bromide)hexyl)carbamate N-methyl-N-3,6,9-trioxadecyl propylamide] to `CCC1=C(C)c2cc3[nH]c(cc4nc(c(C)c5cc(C)c(cc1n2)[nH]5)[C@@H](CCCO)[C@@H]4C)c(C)c3CO[C@@H]1O[C@H](CO)[C@@H](O)[C@H](O)[C@H]1O` [Compound 35, phyllochlorin 3-hydroxypropyl-13-hydroxymethyl-β-D-glucoside ether], the “Therapeutic Index” value falls from 140.21 to 35.35.

First: CCC1=C(C)c2cc3[nH]c(cc4nc(c(C)c5cc(C)c(cc1n2)[nH]5)[C@@H](CCC(=O)OC)[C@@H]4C)c(C)c3COC(=O)NCCCOCCC[P+](c1ccccc1)(c1ccccc1)c1ccccc1 [Compound 40, phyllochlorin methyl ester 13-(N-(3-(3-triphenylphosphoniumpropoxy)propyl)chloride)carbamate]
Second: CCC1=C(C)c2cc3[nH]c(cc4nc(c(C)c5cc(C)c(cc1n2)[nH]5)[C@@H](CCC(=O)OC)[C@@H]4C)c(C)c3C(C)OCCCS[C@@H]1O[C@H](CO)[C@@H](O)[C@H](O)[C@H]1O (stereo partly drawn) [Compound 1, methyl 3-((7S,8S)-18-ethyl-2,5,8,12,17-pentamethyl-13-(1-(3-(((2S,3R,4S,5S,6R)-3,4,5-trihydroxy-6-(hydroxymethyl)tetrahydro-2H-pyran-2-yl)thio)propoxy)ethyl)-7H,8H-porphyrin-7-yl) propanoate]
The “Therapeutic Index” value of the first is higher: 768.13 for the first, 225.00 for the second.

Going from `CCC1=C(C)c2cc3[nH]c(cc4nc(c(C)c5cc(C)c(cc1n2)[nH]5)[C@@H](CCC(=O)N(C)CCCOCCC[P+](c1ccccc1)(c1ccccc1)c1ccccc1)[C@@H]4C)c(C)c3CO[C@@H]1O[C@H](CO)[C@@H](O)[C@H](O)[C@H]1O` [Compound 19] to `CCC1=C(C)c2cc3[nH]c(cc4nc(c(C)c5cc(C)c(cc1n2)[nH]5)[C@@H](CCC(=O)NCCOCCO[C@@H]1O[C@H](CO)[C@@H](O)[C@H](O)[C@H]1O)[C@@H]4C)c(C)c3CO[C@@H]1O[C@H](CO)[C@@H](O)[C@H](O)[C@H]1O` [Compound 16, phyllochlorin 13-hydroxymethyl-β-D-glucoside ether-β-D-1-glucose-2-ethoxy-N-ethanamine], the “Therapeutic Index” value falls from 5.00 to 3.25.

First: CCC1=C(C)c2cc3[nH]c(cc4nc(c(C)c5cc(C)c(cc1n2)[nH]5)[C@@H](CCC(=O)N(C)CCOCCOCCOCCOCCOCCOC)[C@@H]4C)c(C)c3CO[C@@H]1O[C@H](CO)[C@@H](O)[C@H](O)[C@H]1O [Compound 25, phyllochlorin 13-hydroxymethyl-β-D-glucoside ether-β-D-glucosel-N-methyl-N-3,6,9,12,15,18-hexaoxanonadecyl propylamide]
Second: C=Cc1c(C)c2cc3nc(c(C)c4[nH]c(cc5nc(cc1[nH]2)C(C)=C5CC)c(C)c4C(=O)O)[C@@H](CCC(=O)O)[C@@H]3C [Chlorin e4 disodium, reference compound]
The “Therapeutic Index” value of the first is higher: 1.91 for the first, 1.89 for the second.

First: CCC1=C(C)c2cc3[nH]c(cc4nc(c(C)c5cc(C)c(cc1n2)[nH]5)[C@@H](CCC(=O)N(C)CCCO[C@@H]1O[C@H](CO)[C@@H](O)[C@H](O)[C@H]1O)[C@@H]4C)c(C)c3CO[C@@H]1O[C@H](CO)[C@@H](O)[C@H](O)[C@H]1O [Compound 12, phyllochlorin 13-hydroxymethyl-β-D-glucoside ether-β-D-glucosyl-N-methylpropylamide]
Second: CCC1=C(C)c2cc3[nH]c(cc4nc(c(C)c5cc(C)c(cc1n2)[nH]5)[C@@H](CCC(=O)N(C)CCCS[C@@H]1O[C@H](CO)[C@@H](O)[C@H](O)[C@H]1O)[C@@H]4C)c(C)c3C(C)O (stereo partly drawn) [Compound 26, 13-hydroxyethylphyllochlorin-β-D-1-thioglucose-N-methylpropylamide]
The “Therapeutic Index” value of the first is lower: 6.99 for the first, 86.90 for the second.

Compared with `CCC1=C(C)c2cc3[nH]c(cc4nc(c(C)c5cc(C)c(cc1n2)[nH]5)[C@@H](CCC(=O)OC)[C@@H]4C)c(C)c3CO` [Compound 3, phyllochlorin 13-hydroxymethyl methyl ester], `CCC1=C(C)c2cc3[nH]c(cc4nc(c(C)c5cc(C)c(cc1n2)[nH]5)[C@@H](CCC(=O)OC)[C@@H]4C)c(C)c3COC(=O)NCC[P+](c1ccccc1)(c1ccccc1)c1ccccc1` [Compound 46, phyllochlorin methyl ester 13-(N-(2-triphenylphosphoniumethyl)bromide)carbamate] is higher in “Therapeutic Index” value: 148.44 for the first, 912.14 for the second.

First: CCC1=C(C)c2cc3[nH]c(cc4nc(c(C)c5cc(C)c(cc1n2)[nH]5)[C@@H](CCC(=O)N(C)CCCO)[C@@H]4C)c(C)c3CO[C@@H]1O[C@H](CO)[C@@H](O)[C@H](O)[C@H]1O [Compound 6, phyllochlorin N-3-hydroxypropyl-N-methyl-propylamide 13-hydroxymethyl-β-D-glucoside ether]
Second: CCC1=C(C)c2cc3[nH]c(cc4nc(c(C)c5cc(C)c(cc1n2)[nH]5)[C@@H](CCC(=O)N(C)CCOCCOCCOCCOCCOCCOC)[C@@H]4C)c(C)c3CO [Compound 24, phyllochlorin 13-hydroxymethyl N-methyl-N-3,6,9,12,15,18-hexaoxanonadecyl propylamide]
The “Therapeutic Index” value of the first is lower: 6.29 for the first, 81.89 for the second.

Compared with `CCC1=C(C)c2cc3[nH]c(cc4nc(c(C)c5cc(C)c(cc1n2)[nH]5)[C@@H](CCCO[C@@H]1O[C@H](CO)[C@@H](O)[C@H](O)[C@H]1O)[C@@H]4C)c(C)c3CO[C@@H]1O[C@H](CO)[C@@H](O)[C@H](O)[C@H]1O` [Compound 33, phyllochlorin 13-hydroxymethyl-3-hydroxypropyl-bis-β-D-glucoside ether], `C=Cc1c(C)c2cc3nc(c(CC(=O)N[C@@H](CC(=O)O)C(=O)O)c4[nH]c(cc5nc(cc1[nH]2)C(C)=C5CC)c(C)c4C(=O)O)[C@@H](CCC(=O)O)[C@@H]3C` [Talaporfin sodium, reference compound] is lower in “Therapeutic Index” value: 18.41 for the first, 0.49 for the second.

In the case of `CCC1=C(C)c2cc3[nH]c(cc4nc(c(C)c5cc(C)c(cc1n2)[nH]5)[C@@H](CCC(=O)OC)[C@@H]4C)c(C)c3COC(=O)NCCCCCC[P+](c1ccccc1)(c1ccccc1)c1ccccc1` [Compound 39, phyllochlorin methyl ester 13-(6-(triphenylphosphonium bromide)hexyl)carbamate], the “Therapeutic Index” value is reported as 3,557.22.
In the case of `CCC1=C(C)c2cc3[nH]c(cc4nc(c(C)c5cc(C)c(cc1n2)[nH]5)[C@@H](CCC(=O)OC)[C@@H]4C)c(C)c3COC(=O)NCCC[P+](c1ccccc1)(c1ccccc1)c1ccccc1` [Compound 45, phyllochlorin methyl ester 13-(N-(3-triphenylphosphoniumpropyl)bromide)carbamate], the “Therapeutic Index” value is reported as 3,314.17.
